Results from article PMC6629623.
These are yes or no findings as the source states them, for the method shown. In cells and extracts the contact can be indirect. Some binding calls cover weakened binding; strength is not graded here. Where a sequence is shown, tags or fusion partners need not be part of it.

Target: T1, Syndecan-4 with a C-terminal V5 tag (human) (UniProt P31431)
T1 sequence: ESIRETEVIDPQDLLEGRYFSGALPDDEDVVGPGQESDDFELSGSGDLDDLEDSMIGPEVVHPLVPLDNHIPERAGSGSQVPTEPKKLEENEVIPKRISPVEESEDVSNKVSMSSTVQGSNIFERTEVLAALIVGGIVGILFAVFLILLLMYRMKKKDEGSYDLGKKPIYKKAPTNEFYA
Experiment: co-IP; V5 antibody immunoprecipitation from lysates of HTR8 EVTs expressing SDC4-V5 or empty vector; cells treated with PMA for 20 minutes; mild lysis buffer (1% Triton X-100, 150 mM NaCl, 10 mM Tris, 1 mM EDTA, 1 mM EGTA, 0.5% NP-40); Protein G sepharose; mouse IgG1 as negative control; blot for PKCα

binding: binds
Substance: protein kinase C alpha (from UniProt P17252 1-672) (enzyme)
